# Data published in the supplement of paper PMC10735217.
# Some of the results follow. This data set is noisy: repeats of one test often differ as much as different tests do.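 Human kidney-derived cells stably carry a construct in which eight TEAD-binding elements drive luciferase, measured by luminescence in a drug-repurposing library screen. A hit is any compound whose signal exceeds the plate mean by more than five robust Z scores.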
# System: HEK293A TEAD-LUC reporter
# Assay: TEAD-luciferase reporter activity (YAP activation), robust Z score vs plate; higher = stronger YAP/TEAD activation
# Details: 24 h
SMILES,TEAD-luciferase reporter activity (compound concentration: 200 nM),TEAD-luciferase reporter activity (compound concentration: 2 uM),TEAD-luciferase reporter activity (compound concentration: 10 uM)
CCCCOC(=O)CN1CCC(NC(=O)c2cc(Cl)c(N)cc2OC)CC1,inactive: -1.28,inactive: -0.313,inactive: 0.364
CC12CCC(C(C(=O)O)C1=O)C2(C)C (stereo unspecified),inactive: -0.667,inactive: -0.933,inactive: 0.903
CC(C)OC(=O)N1CCC(C)(N2CCC(N3C(=O)N[C@H]4CCCC[C@@H]43)CC2)CC1 [a possible structure for AZD-6088],inactive: 0.578,inactive: -0.187,inactive: 0.271
"Nc1ncnc2c1ncn2C1OC(CO)CC1O (stereo unspecified) [cordycepin, OXiGENE]",inactive: -0.837,inactive: -1.75,inactive: -1.91
CC1(C)CC(=O)c2c(SCCO)sc(-c3nccs3)c2C1,inactive: -0.244,inactive: -0.778,inactive: -0.358
O=C1CCC(C(=O)N2CCCCC2)N1 (stereo unspecified) [Fasoracetam],inactive: -0.606,inactive: -0.716,inactive: 0.41
COc1cc(C(=O)N(C(C)C)C(C)C)ccc1OCCCCOc1ccc2c(N)noc2c1,inactive: -0.887,inactive: -0.423,inactive: -1.46
CC(C)N1CCN(C(C)C)C(=C2NCCN2)C1,inactive: -2.15,inactive: 0.668,inactive: 0.628
CNCC(O)C(O)C(O)C(O)CO (stereo unspecified) [etodolac meglumine],inactive: 0.613,,inactive: 0.313
CNCC(O)C(O)C(O)C(O)CO (stereo unspecified) [meglumine],,inactive: -1.21,
O=C(O)CCCCc1cn(-c2ccccn2)c2ccccc12,inactive: -2.1,,inactive: 0.572
CN(C)CC/C=C1/c2ccccc2Sc2ccc(Cl)cc21 [Chlorprothixene],inactive: 0.674,inactive: -0.887,inactive: 0.588
COc1cc(/C=C/C(=O)CC(C)=O)ccc1O,,inactive: -0.308,
COc1cccc(C(=O)NC2CCN(C(=O)c3ccc(-c4ccccc4OC)cc3)CC2)c1,inactive: 2.01,,inactive: 1.8
CNc1nc(-c2cccc(NC(=O)c3ccc(C(=O)OC)cc3)c2)c2cc(OC)c(OC)cc2n1,inactive: -0.469,inactive: -1.23,inactive: -1.49
CC(C)Cn1ncc2cc(Oc3ccc(F)cc3F)c(C(=O)NCCN(C)C)cc21,inactive: -1.51,inactive: -0.72,inactive: 0.687

SMILES,TEAD-luciferase reporter activity (compound concentration: 200 nM),TEAD-luciferase reporter activity (compound concentration: 2 uM),TEAD-luciferase reporter activity (compound concentration: 10 uM)
"O=C(O)/C=C/c1c[nH]cn1 [cis-urocanic acid, emulsion, BioCis]",inactive: -0.479,,inactive: 2.17
"O=C(O)/C=C/c1c[nH]cn1 [cis-urocanic acid, emulsion]",,inactive: -1.75,
Cc1ccc(NC(=O)C2(c3ccc4c(c3)OC(F)(F)O4)CC2)nc1-c1cccc(C(=O)O)c1 [VX-809 (Lumacaftor)],inactive: -2.19,,inactive: 1.36
Cc1ccc(NC(=O)C2(c3ccc4c(c3)OC(F)(F)O4)CC2)nc1-c1cccc(C(=O)O)c1 [lumacaftor],,inactive: -0.936,
O=C(Nc1ccccc1)c1cc(CN2CCCC2)c(O)c(CN2CCCC2)c1,inactive: 0.188,inactive: -1.27,inactive: -1.19
COc1cc(C)c(-c2c(C)nn3c(=O)[nH]c(C)nc23)c(OC)c1,inactive: 2.04,inactive: -0.515,inactive: 0.36
CCOC(=O)C1=C(C)NC(C)=C(C(=O)OC)C1c1cccc([N+](=O)[O-])c1 (stereo unspecified) [Nitrendipine],inactive: -0.284,inactive: 0.0814,inactive: 0.504
O=C1CCCN1C1CCN(Cc2ccccc2)CC1,inactive: 0.434,,inactive: 0.69
O=C(O)CCn1c2c(c3ccccc31)C[C@H](NS(=O)(=O)c1ccc(F)cc1)CC2 [ramatroban],inactive: -0.389,inactive: -2.56,inactive: 0.949
N/C=C1\Cc2ccccc2C1=O,inactive: -1.5,inactive: -0.987,inactive: -0.376
CC(C)C[C@H](NC(=O)CC[C@@H](C)[C@H]1CC[C@H]2[C@@H]3[C@H](O)C[C@@H]4C[C@H](O)CC[C@]4(C)[C@H]3C[C@H](O)[C@]12C)C(=O)N[C@H](C(=O)N[C@@H](Cc1ccccc1)C(=O)N[C@@H](Cc1ccccc1)C(=O)N[C@@H](C)C(=O)O)C(C)C,inactive: 0.0431,inactive: -0.144,inactive: 0.809
c1cc2c(cc1C1CCCCC1)c1c3n2CCNC3CCC1 (stereo unspecified) [Tetrindole],inactive: 2.91,inactive: -1.24,inactive: -0.936
CC1(C)[C@@H]2CC[C@@]1(C)C(=O)C2 [camphor transdermal],,inactive: -1.31,
"CC1(C)[C@@H]2CC[C@@]1(C)C(=O)C2 [camphor transdermal, Cpex]",inactive: -1.26,,inactive: 0.886
O=c1ccc2cc3ccoc3cc2o1 [Psoralen],inactive: -0.79,inactive: 2.34,inactive: 0.702

# Taken from the listing for reference:
SMILES,TEAD-luciferase reporter activity (compound concentration: 200 nM),TEAD-luciferase reporter activity (compound concentration: 2 uM),TEAD-luciferase reporter activity (compound concentration: 10 uM)
Cc1ccc(NC(=O)C2(c3ccc4c(c3)OC(F)(F)O4)CC2)nc1-c1cccc(C(=O)O)c1 [VX-809 (Lumacaftor)],inactive: -2.19,,inactive: 1.36
Cc1ccc(NC(=O)C2(c3ccc4c(c3)OC(F)(F)O4)CC2)nc1-c1cccc(C(=O)O)c1 [lumacaftor],,inactive: -0.936,
